Key:
rePON1 = experiment: rePON1-lyso-DGTS interaction, Trp fluorescence quenching; type: binding
Procedure: To 200 μl rePON1 (50 μg/ml=1.16 μM) solution in black 96-well plate wells was added lyso-DGTS at various concentration (0, 1, 5, 10, 25, 50, 75, and 100 μg/ml). The solutions were incubated for 2 h at 25° C. or 37° C. Fluorescence measurements were performed with an Infinite M200 PRO fluorescence spectrophotometer (Tecan) with emission spectra recorded from 320 to 450 nm at an excitation wavelength of 290 nm.
The effect of lyso-DGTS on rePON1 can result from a specific interaction between the lipid and the enzyme which was studied using Trp fluorescence quenching method. […] (FIG. 3A) and 37° C. (FIG. 3B) in the 300-450 nm range with an excitation wavelength of 290 nm. Lyso-DGTS quenched the fluorescence of rePON1 in a dose dependent manner at both temperatures.
Quenching pathways can be described by the Stern-Volmer equation (eq. 1):
[formula] where F0 and F are the fluorescence intensities in the absence and presence of quencher (lyso-DGTS), respectively, Ksv is the Stern-Volmer quenching constant, and [Q] is the quencher concentration (M).
The binding constant and binding sites were calculated using (eq. 2):
[formula] where Ka is the binding constant, reflecting the degree of interaction between rePON1 and lyso-DGTS, and n is the number of binding sites specifying the number of lyso-DGTS molecules bound to a rePON1. […] (2.377×10^3 M^−1; FIG. 4C). The values obtained for n were not affected by the temperature and were equal to ˜1 (Table 4). The thermodynamic parameters: enthalpy (ΔH), entropy (ΔS), and free energy (ΔG) were calculated to characterize the type of rePON1-lyso-DGTS interaction.

HDL = experiment: HDL-lyso-DGTS interaction, Trp fluorescence quenching; type: binding, human
Procedure: FIGS. 10A-10B show tryptophan fluorescence spectra of HDL (0.03 mg/ml) incubated with/without lyso-DGTS at various concentrations (1, 5, 10, 25, 50, 75, and 100 μg/ml) in black 96-well plates for 4 h at 37° C. (10A) or 25° C. (10B). The fluorescence was measured at excitation/emission 290/320-340 nm. The ability of lyso-DGTS to elevate HDL activity correlates with its binding affinity to HDL. Each experiment repeated separately at least three times.
HDL and LDL were isolated from human plasma samples by discontinuous density gradient ultracentrifugation and dialyzed against saline containing sodium ethylenediaminetetraacetic acid (EDTA; 1 mmol/L) to protect the lipoproteins against oxidation. Before generating the experiments, LDL and HDL were dialyzed twice, for 1 h each time, and once more overnight against PBS at 4° C. to remove EDTA.
In order to test whether the protective effect of lyso-DGTS on HDL occurs via specific interaction between lyso-DGTS and the lipoprotein, the HDL-lyso-DGTS interaction was investigated by the Trp-fluorescence-quenching method. […] (FIG. 10A) and 25° C. (FIG. 10B) in the 300-450 nm range with an excitation wavelength of 290 nm. Lyso-DGTS quenched HDL fluorescence in a dose-dependent manner at both temperatures.
Quenching pathways can be described by the Stem-Volmer equation (eq. 1 above). The Stern-Volmer curve was linear at the tested concentration of lyso-DGTS at both temperatures (with R>0.99 and p<0.0001). The Ksv values were (5.59±0.42)×10^3 M^−1 at 37° C. (FIG. 11A) and (4.83±0.59)×10^3 M^−1 at 25° C.
The binding constant and binding sites were calculated as shown for rePON1, using eq. 2 above. […] (FIG. 11D). The values obtained for n were not affected by temperature and were equal to 1 (Table 5). The thermodynamic parameters: enthalpy (ΔH), entropy (ΔS), and free energy (ΔG) were calculated to characterize the HDL-lyso-DGTS interaction type.

In the case of `CC/C=C\C/C=C\C/C=C\C/C=C\C/C=C\CCCC(=O)OCC(O)COCCC(C(=O)[O-])[N+](C)(C)C` (stereo not drawn) [lyso-DGTS, lyso-diacylglyceryltrimethylhornmoserine], the “number of binding sites (n), lyso-DGTS-rePON1” value (rePON1; 298 K) is reported as 0.98 ± 0.05, the “ΔG, lyso-DGTS-rePON1 interaction” value (rePON1; 298 K) is reported as -22.876 kJ/mol and the “number of binding sites (n), lyso-DGTS-rePON1” value (rePON1; 310 K) is reported as 0.84 ± 0.05. The “ΔG, lyso-DGTS-rePON1 interaction” value (rePON1; 310 K) was -19.97 kJ/mol, the “ΔH, lyso-DGTS-rePON1 interaction” value (rePON1; from 298 and 310 K) was -94.992 kJ/mol and the “ΔS, lyso-DGTS-rePON1 interaction” value (rePON1; from 298 and 310 K) was −242.16 J/mol K. For the same compound, the “number of binding sites (n), lyso-DGTS-HDL” value (HDL; 298 K) was 0.96 ± 0.05, the “ΔG, lyso-DGTS-HDL interaction” value (HDL; 298 K) was -4.86 kJ/mol and the “number of binding sites (n), lyso-DGTS-HDL” value (HDL; 310 K) was 1.19 ± 0.05. For the same compound, the “ΔG, lyso-DGTS-HDL interaction” value (HDL; 310 K) was -6.127 kJ/mol, the “ΔH, lyso-DGTS-HDL interaction” value (HDL; from 298 and 310 K) was 26.6 kJ/mol and the “ΔS, lyso-DGTS-HDL interaction” value (HDL; from 298 and 310 K) was 105.59 J/mol K.

Reference: patent publication US11591288B2, “Compositions and methods for treating atherosclerotic cardiovascular disease” (GAVISH-GALILEE BIO APPLICATIONS LTD., priority 2017, dated 2023)
